No constants are given. Whether binding was seen depends on the method and setting. Binding seen in cells or lysates may run through a third protein. These calls come from enrichment with a bait or labelling near it, and not all partners need be listed.

Amino acid sequences for entries named in this document (tags omitted).
UniProt P40381: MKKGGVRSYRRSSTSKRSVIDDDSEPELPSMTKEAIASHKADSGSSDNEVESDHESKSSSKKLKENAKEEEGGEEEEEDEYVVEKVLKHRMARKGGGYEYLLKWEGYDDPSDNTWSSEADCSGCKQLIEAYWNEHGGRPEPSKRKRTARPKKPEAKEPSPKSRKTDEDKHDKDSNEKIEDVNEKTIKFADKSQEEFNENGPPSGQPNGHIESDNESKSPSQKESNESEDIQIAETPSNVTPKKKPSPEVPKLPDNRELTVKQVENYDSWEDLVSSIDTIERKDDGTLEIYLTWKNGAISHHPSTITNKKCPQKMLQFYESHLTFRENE
UniProt O94603: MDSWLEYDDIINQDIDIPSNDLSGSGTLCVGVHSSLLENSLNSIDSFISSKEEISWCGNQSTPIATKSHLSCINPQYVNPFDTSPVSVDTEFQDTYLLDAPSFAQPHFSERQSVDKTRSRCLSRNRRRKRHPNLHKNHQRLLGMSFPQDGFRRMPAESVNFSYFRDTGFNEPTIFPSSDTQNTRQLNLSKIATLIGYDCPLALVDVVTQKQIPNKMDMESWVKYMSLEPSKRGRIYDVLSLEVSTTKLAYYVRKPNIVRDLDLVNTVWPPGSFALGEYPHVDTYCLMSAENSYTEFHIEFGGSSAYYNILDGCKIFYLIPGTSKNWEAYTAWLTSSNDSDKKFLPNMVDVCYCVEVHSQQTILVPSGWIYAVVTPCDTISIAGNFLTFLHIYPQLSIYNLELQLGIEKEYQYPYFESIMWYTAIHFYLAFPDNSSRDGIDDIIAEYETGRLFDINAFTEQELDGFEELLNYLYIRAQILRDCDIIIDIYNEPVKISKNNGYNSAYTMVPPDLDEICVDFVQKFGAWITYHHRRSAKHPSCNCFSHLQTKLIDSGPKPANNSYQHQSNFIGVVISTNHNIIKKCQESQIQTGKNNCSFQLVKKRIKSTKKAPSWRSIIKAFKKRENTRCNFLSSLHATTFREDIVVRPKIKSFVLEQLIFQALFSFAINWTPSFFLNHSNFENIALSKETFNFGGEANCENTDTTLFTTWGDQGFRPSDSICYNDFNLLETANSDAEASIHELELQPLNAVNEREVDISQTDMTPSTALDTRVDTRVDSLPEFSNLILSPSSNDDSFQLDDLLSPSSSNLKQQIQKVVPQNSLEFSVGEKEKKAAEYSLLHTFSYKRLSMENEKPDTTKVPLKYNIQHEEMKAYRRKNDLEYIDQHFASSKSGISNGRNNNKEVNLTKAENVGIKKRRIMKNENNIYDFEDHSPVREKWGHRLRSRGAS

Results on 1 substance are retold here after publication PMC11272775, “Epigenetic memory is governed by an effector recruitment specificity toggle in Heterochromatin Protein 1” (Nature Communications, 2024).

In the test the target is 3XFLAG-Swi6-WT (S. pombe strain) (S. pombe) (UniProt P40381). The experiment in a line: affinity purification with mass spectrometry; tandem mass tag affinity purification of N-terminal 3XFLAG-Swi6 from S. pombe; normalised to untagged Swi6, abundance relative to 3XFLAG-Swi6-WT (N = 3).

As to Epe1 (from UniProt O94603 1-948), the binding entry is “binds”.
